Reference: patent publication US20210139935A1
Results are given in words; binding and its absence hold for the method and conditions named. Some binding calls cover weakened binding; strength is not graded here.

Biological target: T1, human CD70 (human) (UniProt P32970)
T1 sequence (looked up): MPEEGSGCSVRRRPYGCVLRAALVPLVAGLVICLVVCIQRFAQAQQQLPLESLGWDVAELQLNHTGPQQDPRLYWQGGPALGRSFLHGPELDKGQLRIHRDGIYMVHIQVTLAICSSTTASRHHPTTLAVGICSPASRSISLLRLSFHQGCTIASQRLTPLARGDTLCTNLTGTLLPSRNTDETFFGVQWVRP
Test: immunohistochemistry on a panel of 32 human tissues, antibody at 2.5 µg/mL and 10.0 µg/mL; robust staining in the positive control (human renal cell carcinoma tumor cells)

B1: the antibody from which the scFv portion of CTX130 was derived (antibody, V domains shown)
VH: QVQLVQSGAEVKKPGASVKVSCKASGYTFTNYGMNWVRQAPGQGLKWMGWINTYTGEPTYADAFKGRVTMTRDTSISTAYMELSRLRSDDTAVYYCARDYGDYGMDYWGQGTTVTVSS
VL: DIVMTQSPDSLAVSLGERATINCRASKSVSTSGYSFMHWYQQKPGQPPKLLIYLASNLESGVPDRFSGSGSGTDFTLTISSLQAEDVAVYYCQHSREVPWTFGQGTKVEIK
Question: How did the binding turn out when B1 was run?
Answer: binds
